Laboratory results from the supplement of paper PMC7666118.
The list shows a part of the results.

Chains of the proteins cited; added tags and fusions are not shown. Lines headed by an entry give the natural chain unless they say otherwise; changes in a name come on top.
UniProt Q9UMY1: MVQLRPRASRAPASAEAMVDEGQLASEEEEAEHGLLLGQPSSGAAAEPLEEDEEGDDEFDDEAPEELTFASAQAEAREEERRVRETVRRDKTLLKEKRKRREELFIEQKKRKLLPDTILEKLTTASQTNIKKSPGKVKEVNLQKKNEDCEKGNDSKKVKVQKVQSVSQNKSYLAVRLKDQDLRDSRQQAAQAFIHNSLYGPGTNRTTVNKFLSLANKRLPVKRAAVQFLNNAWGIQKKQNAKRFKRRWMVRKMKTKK
UniProt P78549: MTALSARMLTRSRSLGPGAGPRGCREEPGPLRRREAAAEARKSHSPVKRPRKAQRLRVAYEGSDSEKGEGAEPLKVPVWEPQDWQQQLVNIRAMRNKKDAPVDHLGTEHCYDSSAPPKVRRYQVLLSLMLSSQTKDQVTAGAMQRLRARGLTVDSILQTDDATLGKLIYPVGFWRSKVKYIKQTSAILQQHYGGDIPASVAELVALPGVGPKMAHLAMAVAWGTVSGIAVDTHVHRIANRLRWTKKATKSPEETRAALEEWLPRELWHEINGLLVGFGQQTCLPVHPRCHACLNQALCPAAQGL
UniProt O43809, whole entry: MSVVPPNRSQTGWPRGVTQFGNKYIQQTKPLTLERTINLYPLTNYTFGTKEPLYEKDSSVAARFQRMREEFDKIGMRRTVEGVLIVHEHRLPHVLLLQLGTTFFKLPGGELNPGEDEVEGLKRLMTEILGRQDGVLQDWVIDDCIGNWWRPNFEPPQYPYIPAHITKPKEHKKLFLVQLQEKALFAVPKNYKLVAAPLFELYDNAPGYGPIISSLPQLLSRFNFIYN
UniProt Q9BZD4: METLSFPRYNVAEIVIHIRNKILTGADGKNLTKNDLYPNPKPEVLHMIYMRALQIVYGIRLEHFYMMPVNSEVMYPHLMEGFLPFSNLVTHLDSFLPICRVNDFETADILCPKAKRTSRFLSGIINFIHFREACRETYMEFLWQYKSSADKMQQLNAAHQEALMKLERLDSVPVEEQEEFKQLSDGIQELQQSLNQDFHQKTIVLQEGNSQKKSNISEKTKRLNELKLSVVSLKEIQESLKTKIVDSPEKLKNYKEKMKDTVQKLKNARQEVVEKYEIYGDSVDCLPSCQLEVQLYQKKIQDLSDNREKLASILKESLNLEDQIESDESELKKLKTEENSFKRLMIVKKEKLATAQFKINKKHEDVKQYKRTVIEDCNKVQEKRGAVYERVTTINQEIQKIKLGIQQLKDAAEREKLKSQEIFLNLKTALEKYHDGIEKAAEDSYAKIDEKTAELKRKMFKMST
UniProt Q8NFH3: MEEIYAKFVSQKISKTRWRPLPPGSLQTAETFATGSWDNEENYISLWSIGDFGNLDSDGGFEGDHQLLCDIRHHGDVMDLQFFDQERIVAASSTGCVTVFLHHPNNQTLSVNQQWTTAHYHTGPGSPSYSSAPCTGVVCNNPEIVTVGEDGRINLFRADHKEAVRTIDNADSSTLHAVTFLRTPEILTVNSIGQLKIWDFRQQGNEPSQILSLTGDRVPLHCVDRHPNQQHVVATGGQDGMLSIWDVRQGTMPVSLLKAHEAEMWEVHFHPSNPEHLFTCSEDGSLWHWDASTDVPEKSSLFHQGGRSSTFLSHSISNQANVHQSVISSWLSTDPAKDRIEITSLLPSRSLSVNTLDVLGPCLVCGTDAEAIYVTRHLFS
UniProt O00483, whole entry: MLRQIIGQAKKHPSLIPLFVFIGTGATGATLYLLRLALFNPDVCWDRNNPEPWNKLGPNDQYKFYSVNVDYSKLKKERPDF
UniProt Q5JPE7: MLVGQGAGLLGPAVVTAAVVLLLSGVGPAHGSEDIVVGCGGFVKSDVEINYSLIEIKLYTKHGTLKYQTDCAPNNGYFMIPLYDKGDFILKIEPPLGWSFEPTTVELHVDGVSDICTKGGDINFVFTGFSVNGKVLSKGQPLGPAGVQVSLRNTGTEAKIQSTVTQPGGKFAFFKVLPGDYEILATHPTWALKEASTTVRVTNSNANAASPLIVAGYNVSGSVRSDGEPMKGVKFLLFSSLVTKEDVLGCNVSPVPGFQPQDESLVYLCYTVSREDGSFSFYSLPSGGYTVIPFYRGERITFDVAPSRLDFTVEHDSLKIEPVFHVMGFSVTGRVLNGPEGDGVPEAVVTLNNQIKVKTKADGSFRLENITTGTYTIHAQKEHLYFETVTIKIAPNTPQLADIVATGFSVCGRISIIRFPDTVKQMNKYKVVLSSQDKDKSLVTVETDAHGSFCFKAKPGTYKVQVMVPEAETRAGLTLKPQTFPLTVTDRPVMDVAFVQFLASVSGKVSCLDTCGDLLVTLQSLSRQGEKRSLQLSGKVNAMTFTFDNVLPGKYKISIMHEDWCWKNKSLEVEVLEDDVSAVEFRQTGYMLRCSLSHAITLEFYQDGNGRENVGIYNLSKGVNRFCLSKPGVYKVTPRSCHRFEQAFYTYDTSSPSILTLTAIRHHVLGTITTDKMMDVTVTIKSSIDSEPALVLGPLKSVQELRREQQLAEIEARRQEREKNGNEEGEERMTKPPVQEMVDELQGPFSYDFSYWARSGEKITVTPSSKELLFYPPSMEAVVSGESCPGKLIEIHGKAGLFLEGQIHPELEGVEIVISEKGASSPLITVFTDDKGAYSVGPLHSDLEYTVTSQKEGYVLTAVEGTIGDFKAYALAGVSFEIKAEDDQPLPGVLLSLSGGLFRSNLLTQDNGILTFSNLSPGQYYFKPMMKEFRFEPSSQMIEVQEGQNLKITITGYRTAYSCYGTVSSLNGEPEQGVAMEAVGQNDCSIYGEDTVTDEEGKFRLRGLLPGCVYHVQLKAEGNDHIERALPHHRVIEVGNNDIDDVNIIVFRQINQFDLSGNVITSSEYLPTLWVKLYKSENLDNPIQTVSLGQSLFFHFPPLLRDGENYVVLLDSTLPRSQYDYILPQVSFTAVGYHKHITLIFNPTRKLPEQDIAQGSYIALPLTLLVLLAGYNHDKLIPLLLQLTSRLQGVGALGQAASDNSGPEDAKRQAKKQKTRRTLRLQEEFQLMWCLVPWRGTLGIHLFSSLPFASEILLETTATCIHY
UniProt Q9Y6M9, whole entry: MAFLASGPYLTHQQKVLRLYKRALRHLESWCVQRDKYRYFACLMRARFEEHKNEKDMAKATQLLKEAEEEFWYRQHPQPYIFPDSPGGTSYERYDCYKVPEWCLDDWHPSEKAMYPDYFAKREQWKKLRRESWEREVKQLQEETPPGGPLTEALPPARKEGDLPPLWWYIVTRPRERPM
UniProt Q9P0J0, whole entry: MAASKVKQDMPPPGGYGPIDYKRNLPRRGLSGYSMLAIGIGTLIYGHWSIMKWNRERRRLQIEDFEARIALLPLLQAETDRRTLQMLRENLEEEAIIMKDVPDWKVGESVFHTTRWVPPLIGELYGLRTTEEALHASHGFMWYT
UniProt O75380, whole entry: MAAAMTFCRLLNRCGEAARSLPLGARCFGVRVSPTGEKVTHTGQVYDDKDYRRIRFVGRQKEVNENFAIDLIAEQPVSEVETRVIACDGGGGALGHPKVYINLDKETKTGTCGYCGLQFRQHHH
UniProt Q9NX40: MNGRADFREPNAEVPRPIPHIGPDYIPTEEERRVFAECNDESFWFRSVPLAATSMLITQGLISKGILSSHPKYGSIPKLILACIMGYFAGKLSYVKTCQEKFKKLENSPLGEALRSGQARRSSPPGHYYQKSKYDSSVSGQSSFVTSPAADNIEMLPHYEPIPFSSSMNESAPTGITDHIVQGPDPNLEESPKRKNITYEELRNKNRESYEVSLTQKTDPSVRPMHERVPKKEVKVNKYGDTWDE
UniProt Q01968: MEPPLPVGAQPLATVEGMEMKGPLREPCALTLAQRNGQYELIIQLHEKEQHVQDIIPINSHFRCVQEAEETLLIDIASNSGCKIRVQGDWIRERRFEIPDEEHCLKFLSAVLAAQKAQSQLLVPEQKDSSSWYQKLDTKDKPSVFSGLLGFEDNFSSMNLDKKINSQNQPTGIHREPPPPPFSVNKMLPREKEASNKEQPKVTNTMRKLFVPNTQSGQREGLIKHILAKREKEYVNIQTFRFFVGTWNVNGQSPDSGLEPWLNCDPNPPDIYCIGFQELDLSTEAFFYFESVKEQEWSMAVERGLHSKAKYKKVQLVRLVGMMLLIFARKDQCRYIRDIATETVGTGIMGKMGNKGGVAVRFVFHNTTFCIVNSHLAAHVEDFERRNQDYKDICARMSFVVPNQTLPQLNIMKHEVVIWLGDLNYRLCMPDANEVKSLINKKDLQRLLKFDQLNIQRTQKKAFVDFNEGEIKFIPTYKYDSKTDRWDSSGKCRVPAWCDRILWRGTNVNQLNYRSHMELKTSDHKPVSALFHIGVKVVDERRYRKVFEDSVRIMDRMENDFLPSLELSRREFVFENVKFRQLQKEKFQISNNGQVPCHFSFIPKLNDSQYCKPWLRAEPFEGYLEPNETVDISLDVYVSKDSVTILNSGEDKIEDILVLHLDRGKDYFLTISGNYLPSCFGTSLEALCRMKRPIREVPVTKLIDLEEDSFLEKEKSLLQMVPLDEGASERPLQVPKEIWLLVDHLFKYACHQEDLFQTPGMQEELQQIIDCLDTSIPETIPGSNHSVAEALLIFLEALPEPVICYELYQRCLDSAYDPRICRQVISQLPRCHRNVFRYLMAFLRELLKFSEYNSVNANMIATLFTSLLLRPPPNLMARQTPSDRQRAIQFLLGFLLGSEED
UniProt O95169, whole entry: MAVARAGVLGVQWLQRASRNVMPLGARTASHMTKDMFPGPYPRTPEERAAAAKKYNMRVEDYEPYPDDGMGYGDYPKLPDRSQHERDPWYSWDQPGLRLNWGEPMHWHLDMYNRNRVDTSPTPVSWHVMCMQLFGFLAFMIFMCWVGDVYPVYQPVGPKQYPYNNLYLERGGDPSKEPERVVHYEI
UniProt Q6IBW4: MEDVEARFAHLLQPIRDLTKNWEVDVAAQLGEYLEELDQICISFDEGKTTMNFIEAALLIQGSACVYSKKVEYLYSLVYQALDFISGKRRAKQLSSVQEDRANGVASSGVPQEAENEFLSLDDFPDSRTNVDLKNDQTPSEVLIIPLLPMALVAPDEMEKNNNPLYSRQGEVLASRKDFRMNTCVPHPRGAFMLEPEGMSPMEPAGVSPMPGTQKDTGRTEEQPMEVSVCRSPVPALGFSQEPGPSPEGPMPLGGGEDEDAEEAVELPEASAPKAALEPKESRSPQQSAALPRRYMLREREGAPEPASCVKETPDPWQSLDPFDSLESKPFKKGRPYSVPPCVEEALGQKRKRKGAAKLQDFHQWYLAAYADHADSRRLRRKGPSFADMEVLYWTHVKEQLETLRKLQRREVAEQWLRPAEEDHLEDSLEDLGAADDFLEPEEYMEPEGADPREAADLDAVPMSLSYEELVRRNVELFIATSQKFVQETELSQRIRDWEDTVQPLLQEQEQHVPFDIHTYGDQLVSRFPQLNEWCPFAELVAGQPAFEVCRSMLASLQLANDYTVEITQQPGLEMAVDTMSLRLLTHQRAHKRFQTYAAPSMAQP
UniProt P61916: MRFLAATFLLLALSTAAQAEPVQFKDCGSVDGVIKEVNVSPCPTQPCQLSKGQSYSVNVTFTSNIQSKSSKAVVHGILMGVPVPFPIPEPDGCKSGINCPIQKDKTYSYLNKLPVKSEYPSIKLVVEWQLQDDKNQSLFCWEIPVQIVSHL
UniProt Q8NEJ9: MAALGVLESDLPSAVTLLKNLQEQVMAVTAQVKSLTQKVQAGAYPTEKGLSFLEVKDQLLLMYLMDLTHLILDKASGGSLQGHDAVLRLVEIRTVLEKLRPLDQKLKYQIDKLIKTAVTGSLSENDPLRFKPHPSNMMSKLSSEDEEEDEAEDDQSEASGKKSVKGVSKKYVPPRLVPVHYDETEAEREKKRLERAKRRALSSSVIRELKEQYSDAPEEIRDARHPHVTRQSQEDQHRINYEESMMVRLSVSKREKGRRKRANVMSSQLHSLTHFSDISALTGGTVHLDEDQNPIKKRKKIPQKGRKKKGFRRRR
UniProt O75414: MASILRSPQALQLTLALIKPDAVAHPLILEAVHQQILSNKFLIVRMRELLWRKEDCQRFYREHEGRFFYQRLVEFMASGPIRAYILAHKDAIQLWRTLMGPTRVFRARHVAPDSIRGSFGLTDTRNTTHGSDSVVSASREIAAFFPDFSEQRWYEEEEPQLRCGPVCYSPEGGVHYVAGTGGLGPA
UniProt P53370: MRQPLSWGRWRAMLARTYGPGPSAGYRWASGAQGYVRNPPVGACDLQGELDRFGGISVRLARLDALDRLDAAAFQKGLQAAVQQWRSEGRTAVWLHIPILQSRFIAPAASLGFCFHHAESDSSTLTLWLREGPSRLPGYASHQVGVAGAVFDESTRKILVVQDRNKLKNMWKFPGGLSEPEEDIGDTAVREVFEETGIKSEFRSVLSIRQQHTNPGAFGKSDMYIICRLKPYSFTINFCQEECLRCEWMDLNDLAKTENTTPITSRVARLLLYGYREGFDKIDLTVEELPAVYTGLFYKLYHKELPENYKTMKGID
UniProt O43920, whole entry: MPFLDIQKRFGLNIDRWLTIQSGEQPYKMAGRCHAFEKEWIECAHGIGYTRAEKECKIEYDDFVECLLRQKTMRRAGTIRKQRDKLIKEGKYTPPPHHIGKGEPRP
UniProt O95182, whole entry: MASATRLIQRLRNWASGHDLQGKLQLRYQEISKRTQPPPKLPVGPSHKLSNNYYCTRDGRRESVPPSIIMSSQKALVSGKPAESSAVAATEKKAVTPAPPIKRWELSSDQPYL

Compound: COc1ccc(Cn2ccc3cc(C)c(C(=O)NO)cc32)cc1
Assay: dose-dependent thermal stabilisation call (2D-TPP, DLPTP, 10% FDR) (binary (1 = stabilised)); higher = stabilised by the compound
Conditions: system: HL-60 intact cells; concentration range 0.04-10 µM
Method: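 2D thermal proteome profiling in intact HL-60 cells treated with BRD-3811 (0, 0.04, 0.29, 2, 10 uM) for 90 min at 37 C, then heated 3 min at one of 12 temperatures (42-63.9 C). Soluble protein was quantified by TMT10 MS. The value is the DLPTP call of the paper: dose-dependent thermal stabilisation over all temperatures at 10% FDR (F-test of a dose-response against a flat model); one experiment, one call per tested protein.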

Target	dose-dependent thermal stabilisation call
NAGPA (UniProt Q9UK23)	inactive: 0
NOL7 (UniProt Q9UMY1)	inactive: 0
NIP30 (UniProt Q9GZU8)	inactive: 0
NTHL1 (UniProt P78549)	inactive: 0
NUDT21 (UniProt O43809)	inactive: 0
NUF2 (UniProt Q9BZD4)	inactive: 0
NUP43 (UniProt Q8NFH3)	inactive: 0
NDUFA4 (UniProt O00483)	inactive: 0
NDUFA12 (UniProt Q9UI09)	inactive: 0
NBEA (UniProt Q8NFP9)	inactive: 0
NT5C3 (UniProt Q9H0P0)	inactive: 0
NECAP2 (UniProt Q9NVZ3)	inactive: 0
NOMO2 (UniProt Q5JPE7)	inactive: 0
NAP1L4 (UniProt Q99733)	inactive: 0
NCF4 (UniProt Q15080)	inactive: 0
NDUFB9 (UniProt Q9Y6M9)	inactive: 0
NDUFA13 (UniProt Q9P0J0)	inactive: 0
NUDCD2 (UniProt Q8WVJ2)	inactive: 0

Target	dose-dependent thermal stabilisation call
NDUFS6 (UniProt O75380)	inactive: 0
NUDCD3 (UniProt Q8IVD9)	inactive: 0
OCIAD1 (UniProt Q9NX40)	inactive: 0
OCRL (UniProt Q01968)	inactive: 0
NDUFB8 (UniProt O95169)	inactive: 0
NCAPH2 (UniProt Q6IBW4)	inactive: 0
NPC2 (UniProt P61916)	inactive: 0
NDUFS1 (UniProt P28331)	inactive: 0
NGDN (UniProt Q8NEJ9)	inactive: 0
NME6 (UniProt O75414)	inactive: 0
NOTCH1 (UniProt P46531)	inactive: 0
NUDT6 (UniProt P53370)	inactive: 0
NDUFS5 (UniProt O43920)	inactive: 0
NAGK (UniProt Q9UJ70)	inactive: 0
NASP (UniProt P49321)	inactive: 0
NDUFV2 (UniProt P19404)	inactive: 0
NPC1 (UniProt O15118)	inactive: 0
NDUFA7 (UniProt O95182)	inactive: 0

3 entries picked at random from those above:
Target	dose-dependent thermal stabilisation call
NDUFA7 (UniProt O95182)	inactive: 0
NDUFV2 (UniProt P19404)	inactive: 0
NME6 (UniProt O75414)	inactive: 0
